Reference: PMC7819943, “Rice protein-binding microarrays: a tool to detect cis-acting elements near promoter regions in rice”
This is one part of the list.

These sequences were tested against T1, OsSMF1 (Oryza sativa, UniProt Q6ZLB0 1-436) (assay: protein-binding microarray (RPBM); PBS, 2% BSA, 51.3 ng/ul salmon testes DNA, 50 uM zinc acetate, 200 nM TF, 25 C, 1 h; high values mean tight binding). Conditions: protein: recombinant; tags: N-terminal polyhistidine and DsRed monomer fusion (pET32a); chain copies: 2; label: CyDye5-dUTP incorporated in the synthesized complementary strand; 3' TTTTT single-stranded linker to array surface; dsDNA, one strand shown.
T1 sequence: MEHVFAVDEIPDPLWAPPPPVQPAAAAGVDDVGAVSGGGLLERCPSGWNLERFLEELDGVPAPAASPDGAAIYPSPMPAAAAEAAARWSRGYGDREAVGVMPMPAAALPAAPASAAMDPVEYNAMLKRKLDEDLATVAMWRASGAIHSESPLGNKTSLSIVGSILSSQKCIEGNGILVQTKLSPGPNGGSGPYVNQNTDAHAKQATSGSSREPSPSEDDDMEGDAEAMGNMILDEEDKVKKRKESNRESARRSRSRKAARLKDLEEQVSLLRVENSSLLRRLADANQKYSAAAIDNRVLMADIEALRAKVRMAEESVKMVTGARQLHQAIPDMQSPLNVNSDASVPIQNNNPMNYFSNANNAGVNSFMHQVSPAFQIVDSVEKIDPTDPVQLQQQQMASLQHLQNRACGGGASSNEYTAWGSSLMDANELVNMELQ
Summary of the method: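 Transcription factors were made in E. coli BL21-CodonPlus as N-terminal fusions to a polyhistidine tag and DsRed, then purified on Ni–NTA. After primer extension with Cy5-dUTP and blocking with 2% BSA, a custom Agilent array was exposed for 1 h at 25 °C to 200 nM protein in PBS, 2% BSA, salmon testes DNA and 50 µM zinc acetate. Washed arrays were scanned on an Axon 4000B, and the binding signal is per-feature fluorescence intensity in arbitrary units.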

| Sequence | binding signal |
| --- | --- |
| TGGAGGAGGACAATCTTTTGGTGTCGGCGTGGATAAATGTCGGAGTCACCTAGTGCAG | 5020 fluorescence intensity (a.u.) |
| GTTCGCGTCGCCGCGGCACAGCGCCAGCGCGGACACCTGGCGGAGTCACCTAGTGCAG | 4740 fluorescence intensity (a.u.) |
| CTACCAGCAGGATGACATTAACCTGTATTTATTTCGTTTTCGGAGTCACCTAGTGCAG | 20400 fluorescence intensity (a.u.) |
| TCTGTCCCTACGTACCGGACAAACCTGACGTTGGCACTACCGGAGTCACCTAGTGCAG | 5680 fluorescence intensity (a.u.) |
| CCCTAGACAGATCAGCTTTGGTGTCTTGGTGGTTGTTGTCCGGAGTCACCTAGTGCAG | 5140 fluorescence intensity (a.u.) |
| TACGCATGCACACCGGAGCGCGTGACGTGGCCCCATGCAACGGAGTCACCTAGTGCAG | 13700 fluorescence intensity (a.u.) |
| TTTGTATGACTGTCTGTGTGCGATCCCATCTGAAAATCCTCGGAGTCACCTAGTGCAG | 3160 fluorescence intensity (a.u.) |
| CTGTAGAACTTGGACCAGCAGCATCAGCAGTAGTAGCAGGCGGAGTCACCTAGTGCAG | 3140 fluorescence intensity (a.u.) |
| ATGGAGTATTTGAATATTTCGCTCTTGCCAGTGACTTGTGCGGAGTCACCTAGTGCAG | 3610 fluorescence intensity (a.u.) |
| TACTATATGTGAGTGTGGAGTGTATGTATAATGGTGTTAGCGGAGTCACCTAGTGCAG | 3310 fluorescence intensity (a.u.) |
| TATCTCACTTACACATCACTTACATATGTAATTATTATGTCGGAGTCACCTAGTGCAG | 3500 fluorescence intensity (a.u.) |
| CGCTCGCCGATCACACGCTGACGCGCACACACCGGCGATTCGGAGTCACCTAGTGCAG | 5570 fluorescence intensity (a.u.) |
| CACGGTTAGGTTTGGGCTAATGTCATCCGCTCGATTGCAGCGGAGTCACCTAGTGCAG | 3920 fluorescence intensity (a.u.) |
| AGGTGTGATGATAAAATTATTAGTACATGACTCAACCTAACGGAGTCACCTAGTGCAG | 4630 fluorescence intensity (a.u.) |
| CCGACGAGGCGGCTGAGCCAGCGTGGGACCCACGTGGACCCGGAGTCACCTAGTGCAG | 7770 fluorescence intensity (a.u.) |
| CCTGGCCACCTCGTTCCCCTTCGCCACGCTTCCACTCTGCCGGAGTCACCTAGTGCAG | 5830 fluorescence intensity (a.u.) |
| GCCCATGTACGATGACGTGTACCCTATTGTCTTCTACTAGCGGAGTCACCTAGTGCAG | 21600 fluorescence intensity (a.u.) |
| TGGCTAGCAGCTGACGAGCTGTCATCGTTGTCAACTCGCTCGGAGTCACCTAGTGCAG | 6740 fluorescence intensity (a.u.) |
| TGCTGCGATCCCAGTCCAAGCGATGTCTCGTGACGGTCACCGGAGTCACCTAGTGCAG | 3290 fluorescence intensity (a.u.) |
| ACTTAAACCCATGTATATTAACAAACCACGTGTCCATCAACGGAGTCACCTAGTGCAG | 6900 fluorescence intensity (a.u.) |
| TGCATGTCAAACAGCTGGGTGCATCACCCACCGCGAATCGCGGAGTCACCTAGTGCAG | 3830 fluorescence intensity (a.u.) |

Two successive records from above, for reference:

| Sequence | binding signal |
| --- | --- |
| ATGGAGTATTTGAATATTTCGCTCTTGCCAGTGACTTGTGCGGAGTCACCTAGTGCAG | 3610 fluorescence intensity (a.u.) |
| TACTATATGTGAGTGTGGAGTGTATGTATAATGGTGTTAGCGGAGTCACCTAGTGCAG | 3310 fluorescence intensity (a.u.) |

Later entries:

| Sequence | binding signal |
| --- | --- |
| CATCGCCGCGCGTGCACCAGAGGACCAGACCGACCGGCGTCGGAGTCACCTAGTGCAG | 50200 fluorescence intensity (a.u.) |
| GTCGGTGAGAGATACTTCACTGAGCTTATAAATAAGAGCACGGAGTCACCTAGTGCAG | 26300 fluorescence intensity (a.u.) |
| CCCGATCCCCGTGGCCACACCCTACCAGTCTTCCAGATCTCGGAGTCACCTAGTGCAG | 4050 fluorescence intensity (a.u.) |
| CCCTCCCACCAATCAATCCACGTGCTCCAGAACCCTAACCCGGAGTCACCTAGTGCAG | 4270 fluorescence intensity (a.u.) |
| CACCGCCGCCCCAGCGCCGCCCCGTTCGCGCGAGCCCGCCCGGAGTCACCTAGTGCAG | 22300 fluorescence intensity (a.u.) |
| CAAGGATCACATCCTGAAGCTGGAGCCAACAAGCACACAGCGGAGTCACCTAGTGCAG | 4430 fluorescence intensity (a.u.) |
| TACAGTCCACACACAACGCCGAACCCTGCAGTGCCTACCTCGGAGTCACCTAGTGCAG | 3250 fluorescence intensity (a.u.) |
| AAATTGTAAGGCTCTAGTGGCCGACGTGTAATAATAATCCCGGAGTCACCTAGTGCAG | 5680 fluorescence intensity (a.u.) |
| AATTTTAAGATGTGTCAGCTCAGTCTTTTGGAGATGTTTTCGGAGTCACCTAGTGCAG | 3640 fluorescence intensity (a.u.) |
| GTTCATCGCGTATGCGCGCGGCAGCCGGCCGGTGGGCGACCGGAGTCACCTAGTGCAG | 3220 fluorescence intensity (a.u.) |
| TATATTTCGCCAACACGCCATCCAAACACTTGGATCATGCCGGAGTCACCTAGTGCAG | 3570 fluorescence intensity (a.u.) |
| ATTTGAGGGCTGGATGACTAGGTATAAAATGGGGCGGGCTCGGAGTCACCTAGTGCAG | 7100 fluorescence intensity (a.u.) |
| AGCGTATTTCAGGATCACAGGTACGTAATCGTCAGCACAACGGAGTCACCTAGTGCAG | 5530 fluorescence intensity (a.u.) |
| CTCCTCCCCAACCAATATAGCTCCTAGCTGCTACGAGTCCCGGAGTCACCTAGTGCAG | 30800 fluorescence intensity (a.u.) |
| GGTGCCATGTACCATGACGCGACAGCGACCGTCTCTCTTCCGGAGTCACCTAGTGCAG | 3290 fluorescence intensity (a.u.) |
| CCTTGAAGTAGACGAGGCTGGTGACGCAGAACTTGACCCACGGAGTCACCTAGTGCAG | 7680 fluorescence intensity (a.u.) |
| CCGCTATCGTCTATTGGGCGTGGCACGGATTTGGGGATCCCGGAGTCACCTAGTGCAG | 4450 fluorescence intensity (a.u.) |
| TCGATGCTCCAACCTACCTTGCCGACGCCGTCACCACGACCGGAGTCACCTAGTGCAG | 3520 fluorescence intensity (a.u.) |
| TTTGGTAGCTTCTTCTATTGTGAATCAGGTATCATGCAGCCGGAGTCACCTAGTGCAG | 3260 fluorescence intensity (a.u.) |
| CGCGACGCTGGCGATGAGTCATGCTGGACGAAGTAGAAGGCGGAGTCACCTAGTGCAG | 7520 fluorescence intensity (a.u.) |
| TATAAATATGGATACCATATGTATAGATTAGTCACTTCAACGGAGTCACCTAGTGCAG | 4820 fluorescence intensity (a.u.) |
